# From patent US20060239984A1
# Sequences of proteins named here, by UniProt entry; tags and fusion partners are left off.
# UniProt P17676: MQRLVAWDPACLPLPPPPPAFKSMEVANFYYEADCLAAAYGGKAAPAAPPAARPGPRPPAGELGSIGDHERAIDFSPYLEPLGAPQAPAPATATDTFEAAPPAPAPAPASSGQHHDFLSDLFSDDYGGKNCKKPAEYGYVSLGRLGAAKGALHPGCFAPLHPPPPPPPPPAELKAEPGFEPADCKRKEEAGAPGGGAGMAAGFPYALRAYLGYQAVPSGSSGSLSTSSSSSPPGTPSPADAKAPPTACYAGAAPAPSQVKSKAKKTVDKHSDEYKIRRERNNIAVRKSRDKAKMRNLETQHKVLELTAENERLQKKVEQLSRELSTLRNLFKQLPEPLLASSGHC
# These are yes or no findings as the source states them, for the method shown. For some assays here: Binding seen in cells or lysates may run through a third protein. Some binding calls cover weakened binding; strength is not graded here.
# B1: IRF-1 (protein, human (endogenous in human HepG2 cells), UniProt P10914 1-325, looked up)
# chain: MPITRMRMRPWLEMQINSNQIPGLIWINKEEMIFQIPWKHAAKHGWDINKDACLFRSWAIHTGRYKAGEKEPDPKTWKANFRCAMNSLPDIEEVKDQSRNKGSSAVRVYRMLPPLTKNQRKERKSKSSRDAKSKAKRKSCGDSSPDTFSDGLSSSTLPDDHSSYTVPGYMQDLEVEQALTPALSPCAVSSTLPDWHIPVEVVPDSTSDLYNFQVSPMPSTSEATTDEDEEGKLPEDIMKLLEQSEWQPTNVDGKGYLLNEPGVQPTSVYGDFSCKEEPEIDSPGGDIGLSLQRVFTDLKNMDATWLDSLLTPVRLPSIQAIPCAP
# How the values were obtained:
# [1] = target: C/EBPβ (human (endogenous in human HepG2 cells)) (UniProt P17676); assay: EMSA with GAS probe and nuclear extracts of IFNgamma-treated HepG2 cells; complex abolished by anti-C/EBPβ and super shifted by anti-IRF-1
# [2] = target: C/EBPβ (human (endogenous in human HepG2 cells)) (UniProt P17676); assay: co-immunoprecipitation and immunoblot of nuclear extracts of IFNgamma-treated HepG2 cells
binder,measurement,setting,value
B1,binding,[1],binds
same,binding,[2],binds
